This note sets out measurements from patent US20240101716A1.

Protein sequences, listed by entry. Tags and fused reporters are not part of them. Lines headed by an entry give the natural chain unless they say otherwise; changes in a name come on top. Chains listed by the source or under a name are the forms on record and can include a tag or linker.
recombinant human SIRPα variant 2 protein (P78324, form named): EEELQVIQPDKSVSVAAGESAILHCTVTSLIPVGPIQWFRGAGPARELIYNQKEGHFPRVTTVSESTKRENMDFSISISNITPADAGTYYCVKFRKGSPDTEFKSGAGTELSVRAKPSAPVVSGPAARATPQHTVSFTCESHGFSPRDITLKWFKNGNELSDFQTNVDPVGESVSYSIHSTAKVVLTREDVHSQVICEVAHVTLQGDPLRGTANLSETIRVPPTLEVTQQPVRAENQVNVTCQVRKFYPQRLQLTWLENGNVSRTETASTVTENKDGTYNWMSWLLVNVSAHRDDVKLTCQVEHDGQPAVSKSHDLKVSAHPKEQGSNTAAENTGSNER

No constants are given. Whether binding was seen depends on the method and setting. Some results given as binding are weak or reduced against the parent protein; the word gives no strength.

In assay [1] the target is recombinant human SIRPα variant 2 protein (human) (UniProt P78324). Kind of assay: ELISA, coated antigen.
Assay [2] has the same target. Description: ELISA, coated antigen (FIG. 1).

B1: 300A6A6 (antibody, V domains shown)
VH: QVQLQQSGTELVKPGSSVKISCKASGYTFTSNYIHWIRQQPGNGLEWIGWIYPGDGDTNYNQKFNGKATLTADKSSSTAYMQLSSLTSEDYAVYFCAINYGGIWFAYWGQGTLVTVSS
VL: DIQMTQSPSSMSASLGDRVTITCQASQDIGNKLIWFQQKPGKSPRLMIHYVTNLPGGVPLRFSGSRSGSDYSLTISSLESEDMADYYCLQYKQNPLTFGSGTKLEIK
With B1, the binding entry in assay [1] and in assay [2] was “binds” in each case.
